Values quoted from earlier work, collected in patent US6599914B2, “Inhibition of cytokine generation” (Schering Corporation, priority 2001, dated 2003).
For at least one compound, name, drawing or mass did not settle the structure.

Tested on: human basophils
Conditions: cited from earlier work

C=CC[C@@H]1/C=C(\C)C[C@H](C)C[C@H](OC)[C@H]2O[C@@](O)(C(=O)C(=O)N3CCCC[C@H]3C(=O)O[C@H](/C(C)=C/[C@@H]3CC[C@@H](O)[C@H](OC)C3)[C@H](C)[C@@H](O)CC1=O)[C@H](C)C[C@@H]2OC [FK-506]
IL-4 and IL-13 induced by anti-IgE and ionophore: inhibited | IL-13 made in response to IL-3 or PMA activation: unaffected | IL-13 secretion induced by anti-IgE and ionomycin: sensitive
